1 sequence from article PMC8531451 can be followed below.

Chains of the proteins cited; added tags and fusions are not shown. Residues count along the entry.
UniProt P02769, 25-607: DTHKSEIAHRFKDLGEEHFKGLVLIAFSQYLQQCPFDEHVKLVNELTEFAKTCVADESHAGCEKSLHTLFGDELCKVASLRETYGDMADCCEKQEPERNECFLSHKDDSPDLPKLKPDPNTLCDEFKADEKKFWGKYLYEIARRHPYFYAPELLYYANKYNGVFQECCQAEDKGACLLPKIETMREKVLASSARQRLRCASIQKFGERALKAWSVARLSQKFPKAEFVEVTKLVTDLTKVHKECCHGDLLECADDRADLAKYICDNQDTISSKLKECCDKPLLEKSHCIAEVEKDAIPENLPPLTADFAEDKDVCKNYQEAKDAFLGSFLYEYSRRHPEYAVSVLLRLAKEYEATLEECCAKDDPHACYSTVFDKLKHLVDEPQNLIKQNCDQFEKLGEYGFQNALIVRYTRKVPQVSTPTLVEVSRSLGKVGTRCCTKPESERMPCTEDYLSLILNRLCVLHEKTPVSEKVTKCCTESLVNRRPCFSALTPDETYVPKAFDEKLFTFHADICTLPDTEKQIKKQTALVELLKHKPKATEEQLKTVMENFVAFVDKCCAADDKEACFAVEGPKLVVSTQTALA
UniProt P02754, 17-178: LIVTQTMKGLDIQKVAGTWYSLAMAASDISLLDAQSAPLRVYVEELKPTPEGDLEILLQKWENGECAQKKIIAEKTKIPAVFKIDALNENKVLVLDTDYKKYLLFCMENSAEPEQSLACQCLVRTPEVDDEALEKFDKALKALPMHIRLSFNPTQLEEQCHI

For part of these data: Negatives hold for the conditions tested. For part of these data: For at least one entry, the source does not settle the construct or the ends of the probe. For part of these data: At least one verdict was read from the data and is not stated in words by the source.

Data set [1] relates to Lysozyme. Description: non-faradaic capacitive aptasensor. Particulars: 100 fg/ml, negligible change; 5' biotin (5Biosg) on oligolinker S1; Sensor: 10 mM PBS pH 7.4, target incubated 10 min; aptamer folded in 1 mM MgCl2, 10 mM PBS (90 °C 5 min); commercial protein; label: biotin.
Data set [2] addresses Bovine serum albumin (BSA) (bovine) (UniProt P02769). Description: non-faradaic capacitive aptasensor. The following applies: 100 fg/ml, negligible change; 5' biotin (5Biosg) on oligolinker S1; Sensor: 10 mM PBS pH 7.4, target incubated 10 min; aptamer folded in 1 mM MgCl2, 10 mM PBS (90 °C 5 min); commercial protein; label: biotin.
The target of data set [3] is beta-lactoglobulin (bovine) (UniProt P02754). Description: ELASA (enzyme-linked aptasorbent assay). Particulars: 0.001-1000 pg/ml coated protein, 50 nM aptamer; 5' biotin (5Biosg) on oligolinker S1; Sensor: 10 mM PBS pH 7.4, target incubated 10 min; aptamer folded in 1 mM MgCl2, 10 mM PBS (90 °C 5 min); commercial protein; label: biotin.

On to “ATACCAGCTTATTCAATTCGACGATCGGACCGCAGTACCCACCCACCAGCCCCAACATCATGCCCATCCGTGTGTGAGATAGTAAGTGCAATCTAAAAAAAAAAAAAAAAAAAAAAAA / TTTTTTTTTTTTTTTTTTTT”, for which the binding result in data set [1] is listed as “no binding”; in data set [2] it was “no binding”; in data set [3], “binds”.
